Assay [1] has as its target T1, Pex14p^TPA-S266D (phosphomimicking mutant) (S. cerevisiae) (UniProt P53112).
T1 sequence: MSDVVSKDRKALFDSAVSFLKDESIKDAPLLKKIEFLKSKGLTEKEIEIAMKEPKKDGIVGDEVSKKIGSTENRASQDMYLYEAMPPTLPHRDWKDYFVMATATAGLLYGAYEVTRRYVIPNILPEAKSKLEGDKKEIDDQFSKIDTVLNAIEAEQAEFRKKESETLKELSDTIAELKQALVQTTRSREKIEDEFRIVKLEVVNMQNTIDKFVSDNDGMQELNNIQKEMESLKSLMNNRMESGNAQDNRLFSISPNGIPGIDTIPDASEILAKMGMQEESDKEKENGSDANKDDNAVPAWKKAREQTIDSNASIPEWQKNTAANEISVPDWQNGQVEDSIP
Description: co-IP; TPA-tagged Pex14p variants as baits captured on IgG-coupled Sepharose from 1% digitonin-solubilised total membranes of cells grown 16 h in oleic acid medium; eluted by TEV protease cleavage; eluates immunoblotted.

For assay [2], the target named is T2, Pex14p^TPA-S266A (non-phosphorylatable mutant) (S. cerevisiae) (UniProt P53112).
T2 sequence: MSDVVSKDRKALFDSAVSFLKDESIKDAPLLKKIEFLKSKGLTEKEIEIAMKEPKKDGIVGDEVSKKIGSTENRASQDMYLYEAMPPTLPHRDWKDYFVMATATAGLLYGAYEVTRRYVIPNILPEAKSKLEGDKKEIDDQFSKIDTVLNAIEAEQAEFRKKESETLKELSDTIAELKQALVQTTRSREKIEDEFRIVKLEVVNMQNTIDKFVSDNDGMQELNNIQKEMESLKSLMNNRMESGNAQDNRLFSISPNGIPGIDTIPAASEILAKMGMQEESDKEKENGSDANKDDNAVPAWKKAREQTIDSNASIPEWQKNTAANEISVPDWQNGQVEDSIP
The description is as above.

The target of assay [3] is T3, Pex14p-S266A, Gal4p fusion protein for yeast two-hybrid (S. cerevisiae) (UniProt P53112).
T3 sequence: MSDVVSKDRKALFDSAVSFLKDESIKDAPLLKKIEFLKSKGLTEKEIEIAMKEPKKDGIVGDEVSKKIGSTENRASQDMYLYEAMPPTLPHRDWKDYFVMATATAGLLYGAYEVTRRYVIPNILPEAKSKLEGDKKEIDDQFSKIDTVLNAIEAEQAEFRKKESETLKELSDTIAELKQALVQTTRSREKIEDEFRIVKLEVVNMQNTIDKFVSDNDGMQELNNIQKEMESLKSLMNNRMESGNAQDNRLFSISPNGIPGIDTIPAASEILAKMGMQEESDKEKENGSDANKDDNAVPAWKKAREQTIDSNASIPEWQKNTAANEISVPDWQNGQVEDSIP
Description: two-hybrid; liquid ß-galactosidase assay with 2-nitrophenyl β-D-galactopyranoside; GAL4 BD and AD fusions in strain PCY2 pex14Δ; triplicate measurements of three independent transformants.

The target of assay [4] is T4, Pex14p-S266D, Gal4p fusion protein for yeast two-hybrid (S. cerevisiae) (UniProt P53112).
T4 sequence: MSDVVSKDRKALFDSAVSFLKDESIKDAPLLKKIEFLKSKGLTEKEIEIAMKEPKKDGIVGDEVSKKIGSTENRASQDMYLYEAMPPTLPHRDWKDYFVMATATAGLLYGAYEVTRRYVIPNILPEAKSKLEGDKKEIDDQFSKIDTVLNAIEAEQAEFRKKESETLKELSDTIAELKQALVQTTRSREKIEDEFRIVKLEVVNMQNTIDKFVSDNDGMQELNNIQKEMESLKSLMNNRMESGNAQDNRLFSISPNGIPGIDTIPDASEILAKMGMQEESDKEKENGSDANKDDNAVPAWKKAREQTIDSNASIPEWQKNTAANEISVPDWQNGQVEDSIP
Described as above.

Assay [5] addresses T3, Pex14p-S266A, Gal4p fusion protein for yeast two-hybrid (S. cerevisiae). Description: two-hybrid; ß-galactosidase filter assay with X-Gal; GAL4 BD and AD fusions co-transformed into strain PCY2 pex14Δ.
In assay [6] the target is T4, Pex14p-S266D, Gal4p fusion protein for yeast two-hybrid (S. cerevisiae). The assay is described as above.
Assay [7] deals with T5, Pex14p wild-type, Gal4p fusion protein for yeast two-hybrid (S. cerevisiae) (UniProt P53112).
T5 sequence: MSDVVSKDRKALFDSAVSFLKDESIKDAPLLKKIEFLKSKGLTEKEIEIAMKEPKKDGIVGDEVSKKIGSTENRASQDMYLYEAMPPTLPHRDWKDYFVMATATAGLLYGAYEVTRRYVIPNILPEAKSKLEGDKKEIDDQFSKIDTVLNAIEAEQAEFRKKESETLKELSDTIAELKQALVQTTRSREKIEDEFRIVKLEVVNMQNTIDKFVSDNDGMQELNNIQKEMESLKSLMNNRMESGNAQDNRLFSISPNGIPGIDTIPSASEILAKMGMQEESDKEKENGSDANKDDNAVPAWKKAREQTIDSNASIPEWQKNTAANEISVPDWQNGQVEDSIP
Described as above.

These are yes or no findings as the source states them, for the method shown. For some assays here: In cells and extracts the contact can be indirect. Some binding calls cover weakened binding; strength is not graded here. For some assays here: Where a sequence is shown, tags or fusion partners need not be part of it.

B1: Pex7p (protein, UniProt P39108 1-375)
chain: MLRYHMQGFSGYGVQYSPFFDNRLAVAAGSNFGLVGNGKLFILEIDRSGRIVEVNSFLTQDCLFDLAWNESHENQVLVAQGDGTLRLFDTTFKEFPIAIFKEHEREVFSCNWNLVNRQNFLSSSWDGSIKIWSPLRKQSLMTLTPRPLEITKMVDPLNAIILKKKSFTGISKNRNCVYQAQFSPHDQNLVLSCSGNSYASLFDIRLPSGKNQNNFLVHSGLEALTCDFNKYRPYVVATGGVDNAIRIWDIRMLNKNESATIKRTVPGQLHNSSCINEIPNAHGLAIRKVTWSPHHSNILMSASYDMTCRIWRDLSNDGAKETYKTNSTDATKGSIFNFTQHSEFVFGADWSLWGKPGYVASTAWDGNLFVWNGLG
In the case of B1, the binding result in assay [1] and in assay [2] was “binds” in each case.

B2: Pex17p, Gal4p fusion protein for yeast two-hybrid (protein, UniProt P40155 1-199)
chain: MTSINSFPRNIDWPSNIGIKKIEGTNPTVNAIKGLLYNGGSIYAFLYFVIAMFVEPTLQKQYQQRNDFSLFVLLRLRRIIAQLQKRLVMTPVSSLGFNEQNNFVERSTQTSDDNIIREDNSHWAEMIYQLQNMKQELQYFNRSSGQPSESIDDFVFQIKMVTDQVELTDRSRAFSNKSRNIIQGIREIKGWFVNGQVPR
Take B2: the binding result in assay [3] and in assay [4] was “binds” in each case.

B3: Pex17p (protein, UniProt P40155 1-199)
chain: MTSINSFPRNIDWPSNIGIKKIEGTNPTVNAIKGLLYNGGSIYAFLYFVIAMFVEPTLQKQYQQRNDFSLFVLLRLRRIIAQLQKRLVMTPVSSLGFNEQNNFVERSTQTSDDNIIREDNSHWAEMIYQLQNMKQELQYFNRSSGQPSESIDDFVFQIKMVTDQVELTDRSRAFSNKSRNIIQGIREIKGWFVNGQVPR
Regarding B3, the binding entry in assay [1] and in assay [2] was “binds” in each case.

B4: Pex5p, Gal4p fusion protein for yeast two-hybrid (protein, UniProt P35056 1-612)
chain: MDVGSCSVGNNPLAQLHKHTQQNKSLQFNQKNNGRLNESPLQGTNKPGISEAFISNVNAISQENMANMQRFINGEPLIDDKRRMEIGPSSGRLPPFSNVHSLQTSANPTQIKGVNDISHWSQEFQGSNSIQNRNADTGNSEKAWQRGSTTASSRFQYPNTMMNNYAYASMNSLSGSRLQSPAFMNQQQSGRSKEGVNEQEQQPWTDQFEKLEKEVSENLDINDEIEKEENVSEVEQNKPETVEKEEGVYGDQYQSDFQEVWDSIHKDAEEVLPSELVNDDLNLGEDYLKYLGGRVNGNIEYAFQSNNEYFNNPNAYKIGCLLMENGAKLSEAALAFEAAVKEKPDHVDAWLRLGLVQTQNEKELNGISALEECLKLDPKNLEAMKTLAISYINEGYDMSAFTMLDKWAETKYPEIWSRIKQQDDKFQKEKGFTHIDMNAHITKQFLQLANNLSTIDPEIQLCLGLLFYTKDDFDKTIDCFESALRVNPNDELMWNRLGASLANSNRSEEAIQAYHRALQLKPSFVRARYNLAVSSMNIGCFKEAAGYLLSVLSMHEVNTNNKKGDVGSLLNTYNDTVIETLKRVFIAMNRDDLLQEVKPGMDLKRFKGEFSF
As to B4, the binding entry in assay [5], in assay [6] and in assay [7] was “binds” throughout.

B5: Pex5p (protein, UniProt P35056 1-612)
chain: MDVGSCSVGNNPLAQLHKHTQQNKSLQFNQKNNGRLNESPLQGTNKPGISEAFISNVNAISQENMANMQRFINGEPLIDDKRRMEIGPSSGRLPPFSNVHSLQTSANPTQIKGVNDISHWSQEFQGSNSIQNRNADTGNSEKAWQRGSTTASSRFQYPNTMMNNYAYASMNSLSGSRLQSPAFMNQQQSGRSKEGVNEQEQQPWTDQFEKLEKEVSENLDINDEIEKEENVSEVEQNKPETVEKEEGVYGDQYQSDFQEVWDSIHKDAEEVLPSELVNDDLNLGEDYLKYLGGRVNGNIEYAFQSNNEYFNNPNAYKIGCLLMENGAKLSEAALAFEAAVKEKPDHVDAWLRLGLVQTQNEKELNGISALEECLKLDPKNLEAMKTLAISYINEGYDMSAFTMLDKWAETKYPEIWSRIKQQDDKFQKEKGFTHIDMNAHITKQFLQLANNLSTIDPEIQLCLGLLFYTKDDFDKTIDCFESALRVNPNDELMWNRLGASLANSNRSEEAIQAYHRALQLKPSFVRARYNLAVSSMNIGCFKEAAGYLLSVLSMHEVNTNNKKGDVGSLLNTYNDTVIETLKRVFIAMNRDDLLQEVKPGMDLKRFKGEFSF
Regarding B5, the binding entry in assay [1] and in assay [2] was “binds” each time.

Values taken from publication PMC7522779.
